No constants are given. Whether binding was seen depends on the method and setting. For part of these data: Binding seen in cells or lysates may run through a third protein. Some results given as binding are weak or reduced against the parent protein; the word gives no strength. Sequences can lack the tags named with a protein.
T1: HIGH OSMOTIC STRESS GENE EXPRESSION 5 (HOS5), yeast two-hybrid fusion (Arabidopsis thaliana) (UniProt Q8W4B1)
T1 sequence: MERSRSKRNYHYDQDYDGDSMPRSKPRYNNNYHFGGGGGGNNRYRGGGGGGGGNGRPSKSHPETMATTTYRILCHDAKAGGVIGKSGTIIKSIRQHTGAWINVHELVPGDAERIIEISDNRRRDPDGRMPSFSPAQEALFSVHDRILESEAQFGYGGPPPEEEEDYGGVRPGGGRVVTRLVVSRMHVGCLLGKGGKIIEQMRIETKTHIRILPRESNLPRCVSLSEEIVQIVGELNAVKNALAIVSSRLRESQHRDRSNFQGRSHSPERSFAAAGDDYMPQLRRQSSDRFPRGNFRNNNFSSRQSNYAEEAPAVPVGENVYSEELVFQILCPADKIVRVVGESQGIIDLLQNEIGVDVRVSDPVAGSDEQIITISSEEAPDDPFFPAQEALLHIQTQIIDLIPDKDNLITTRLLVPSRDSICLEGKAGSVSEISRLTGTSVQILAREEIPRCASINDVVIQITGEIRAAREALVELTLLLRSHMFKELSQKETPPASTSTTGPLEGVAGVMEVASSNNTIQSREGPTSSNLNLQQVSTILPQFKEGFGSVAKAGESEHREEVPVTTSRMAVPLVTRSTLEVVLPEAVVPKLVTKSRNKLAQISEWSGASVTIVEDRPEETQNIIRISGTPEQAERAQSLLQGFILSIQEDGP

T2: HIGH OSMOTIC STRESS GENE EXPRESSION 5 (HOS5), BiFC fusion to a half of YFP (Arabidopsis thaliana) (UniProt Q8W4B1)
T2 sequence: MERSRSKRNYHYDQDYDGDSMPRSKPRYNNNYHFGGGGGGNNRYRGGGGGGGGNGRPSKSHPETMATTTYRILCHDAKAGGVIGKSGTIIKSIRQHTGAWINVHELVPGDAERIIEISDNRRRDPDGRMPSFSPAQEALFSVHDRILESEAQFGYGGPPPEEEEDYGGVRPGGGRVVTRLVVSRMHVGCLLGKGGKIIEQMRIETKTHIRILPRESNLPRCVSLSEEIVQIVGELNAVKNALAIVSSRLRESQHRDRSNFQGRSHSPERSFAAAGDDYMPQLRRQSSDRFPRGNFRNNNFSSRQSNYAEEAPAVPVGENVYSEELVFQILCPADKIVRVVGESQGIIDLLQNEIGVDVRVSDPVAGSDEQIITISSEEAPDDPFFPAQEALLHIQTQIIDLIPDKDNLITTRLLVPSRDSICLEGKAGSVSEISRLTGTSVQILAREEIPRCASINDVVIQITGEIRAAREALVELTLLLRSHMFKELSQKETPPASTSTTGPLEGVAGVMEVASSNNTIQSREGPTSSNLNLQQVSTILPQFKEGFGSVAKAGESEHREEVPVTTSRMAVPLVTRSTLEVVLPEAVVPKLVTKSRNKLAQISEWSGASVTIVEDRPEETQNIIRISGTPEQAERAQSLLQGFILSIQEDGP


Key:
[1] = molecular target: T1, HIGH OSMOTIC STRESS GENE EXPRESSION 5 (HOS5), yeast two-hybrid fusion (Arabidopsis thaliana); assay: two-hybrid; LexA-inducible system, pGilda and pB42AD constructs co-transformed in yeast EGY48; induction on galactose and raffinose plates; X-gal colorimetric assay (blue colonies); empty vectors as negative controls
[2] = molecular target: T2, HIGH OSMOTIC STRESS GENE EXPRESSION 5 (HOS5), BiFC fusion to a half of YFP (Arabidopsis thaliana); assay: split reporter; BiFC with YFPct and YFPnt fusions (35S promoter) in agroinfiltrated Nicotiana benthamiana leaf cells; YFP fluorescence seen 72 h after inoculation by epifluorescence microscopy; signal in nuclei; negative control YFPct construct with empty YFPnt

binding [1] | binding [2] | Binder
binds |  | CPL1, yeast two-hybrid fusion (protein, UniProt Q5YDB6 1-967) MYSNNRVEVFHGDGRLGELEIYPSRELNQQQDDVMKQRKKKQREVMELAKMGIRISHFSQSGERCPPLAILTTISSCGLCFKLEASPSPAQESLSLFYSSCLRDNKTAVMLLGGEELHLVAMYSENIKNDRPCFWAFSVAPGIYDSCLVMLNLRCLGIVFDLDETLVVANTMRSFEDKIDGFQRRINNEMDPQRLAVIVAEMKRYQDDKNLLKQYIESDQVVENGEVIKVQSEIVPALSDNHQPLVRPLIRLQEKNIILTRINPMIRDTSVLVRMRPSWEELRSYLTAKGRKRFEVYVCTMAERDYALEMWRLLDPEGNLINTNDLLARIVCVKSGFKKSLFNVFLDGTCHPKMALVIDDRLKVWDEKDQPRVHVVPAFAPYYSPQAEAAATPVLCVARNVACGVRGGFFRDFDDSLLPRIAEISYENDAEDIPSPPDVSHYLVSEDDTSGLNGNKDPLSFDGMADTEVERRLKEAISASSAVLPAANIDPRIAAPVQFPMASASSVSVPVPVQVVQQAIQPSAMAFPSIPFQQPQQPTSIAKHLVPSEPSLQSSPAREEGEVPESELDPDTRRRLLILQHGQDTRDPAPSEPSFPQRPPVQAPPSHVQSRNGWFPVEEEMDPAQIRRAVSKEYPLDSEMIHMEKHRPRHPSFFSKIDNSTQSDRMLHENRRPPKESLRRDEQLRSNNNLPDSHPFYGEDASWNQSSSRNSDLDFLPERSVSATETSADVLHGIAIKCGAKVEYKPSLVSSTDLRFSVEAWLSNQKIGEGIGKSRREALHKAAEASIQNLADGYMRANGDPGPSHRDATPFTNENISMGNANALNNQPFARDETALPVSSRPTDPRLEGSMRHTGSITALRELCASEGLEMAFQSQRQLPSDMVHRDELHAQVEIDGRVVGEGVGSTWDEARMQAAERALSSVRSMLGQPLHKRQGSPRSFGGMSNKRLKPDFQRSLQRMPSSGRYS
binds |  | FLOWERING LOCUS K (FLK), yeast two-hybrid fusion (protein, UniProt Q9SR13 1-577) MAEAEDQQNFVAHNGDQVPDQGSDELHNGLPYQVHDETLVHQPYEVEDPILEPQQYEVPDPTLEPQQYEVPDQTLEPQQYEVDDQLEYHQYQLQDQANEDVQDHSQDDLQYQPQNQEQFQLQDEAHDQAQYQAQGDVQDHNGDEVQDKVEDEEGIPEHLESLQKSEPEEDATVGGEEKRWPGWPGETVFRMLVPAQKVGSIIGRKGDVIKKIVEETRARIKILDGPPGTTERAVMVSGKEEPESSLPPSMDGLLRVHMRIVDGLDGEASQAPPPSKVSTRLLVPASQAGSLIGKQGGTVKAIQEASACIVRVLGSEDLPVFALQDDRVVEVVGEPTSVHRALELIASHLRKFLVDRSIIPFFENQMQKPTRQMDHMPPPHQSWGPPQGHAPSVGGGGYGHNPPPYMQPPPRHDSYYPPPEMRQPPMEKQPHQGISAYGREPPMNVHVSSAPPMVAQQVTQQMQIPLSYADAVIGTSGSNISYTRRLSGATVTIQETRGVPGEMTVEVSGTGSQVQTAVQLIQNFMAEAGAPAPAQPQTVAPEQQGYNPYATHGSVYAAAPTNPPGGYATDYSSGYGY
 | binds | FLOWERING LOCUS K (FLK), BiFC fusion to a half of YFP (protein, UniProt Q9SR13 1-577) MAEAEDQQNFVAHNGDQVPDQGSDELHNGLPYQVHDETLVHQPYEVEDPILEPQQYEVPDPTLEPQQYEVPDQTLEPQQYEVDDQLEYHQYQLQDQANEDVQDHSQDDLQYQPQNQEQFQLQDEAHDQAQYQAQGDVQDHNGDEVQDKVEDEEGIPEHLESLQKSEPEEDATVGGEEKRWPGWPGETVFRMLVPAQKVGSIIGRKGDVIKKIVEETRARIKILDGPPGTTERAVMVSGKEEPESSLPPSMDGLLRVHMRIVDGLDGEASQAPPPSKVSTRLLVPASQAGSLIGKQGGTVKAIQEASACIVRVLGSEDLPVFALQDDRVVEVVGEPTSVHRALELIASHLRKFLVDRSIIPFFENQMQKPTRQMDHMPPPHQSWGPPQGHAPSVGGGGYGHNPPPYMQPPPRHDSYYPPPEMRQPPMEKQPHQGISAYGREPPMNVHVSSAPPMVAQQVTQQMQIPLSYADAVIGTSGSNISYTRRLSGATVTIQETRGVPGEMTVEVSGTGSQVQTAVQLIQNFMAEAGAPAPAQPQTVAPEQQGYNPYATHGSVYAAAPTNPPGGYATDYSSGYGY
